Here are results for one sequence from publication PMC7768483.

Chains of the proteins cited; added tags and fusions are not shown. Lines headed by an entry give the natural chain unless they say otherwise; changes in a name come on top.
UniProt P48031: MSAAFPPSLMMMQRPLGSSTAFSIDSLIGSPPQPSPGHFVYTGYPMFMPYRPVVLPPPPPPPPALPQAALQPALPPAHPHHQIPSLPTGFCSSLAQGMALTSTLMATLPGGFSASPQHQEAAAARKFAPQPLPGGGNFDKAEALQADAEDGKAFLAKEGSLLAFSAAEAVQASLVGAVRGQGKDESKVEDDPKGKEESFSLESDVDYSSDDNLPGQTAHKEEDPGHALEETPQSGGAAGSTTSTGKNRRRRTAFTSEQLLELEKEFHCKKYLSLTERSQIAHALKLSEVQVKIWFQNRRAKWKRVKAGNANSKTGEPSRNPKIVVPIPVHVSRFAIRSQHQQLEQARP

This series deals with GBX2 (full-length) (mouse) (UniProt P48031). The experiment in a line: competition with a labelled probe. The note with it: unlabeled N2 at 100x, 300x, 500x against labeled N1, reduction of shift diminished; 2X binding buffer: 20 mM Tris-HCl pH 7.4, 50 mM KCl, 1 mM DTT, 10% glycerol, 200 µg/mL BSA, 2.2 µg/mL poly dI/dC; 30 min at 25 °C; 6% native PAGE, Tris-glycine; recombinant protein; residues 1-348; label: unlabeled.

A weaker result is weaker than the reference pair of the same experiment.

Turning to “AACATTCCAAAAATTATCAAGATTGAGTTCTGCTTGTTTTTTATT (double strand) [NRP1 mutated 45-mer (GBX2-binding sequence omitted)]”, the binding result is recorded as “binds more weakly”.
